These results are taken from patent US10253109 (BLOODWORKS, dated 2019).

Assay [1] deals with T1, human Kell glycoprotein, Kp^a (KEL3) form (human) (UniProt P23276).
T1 sequence (looked up): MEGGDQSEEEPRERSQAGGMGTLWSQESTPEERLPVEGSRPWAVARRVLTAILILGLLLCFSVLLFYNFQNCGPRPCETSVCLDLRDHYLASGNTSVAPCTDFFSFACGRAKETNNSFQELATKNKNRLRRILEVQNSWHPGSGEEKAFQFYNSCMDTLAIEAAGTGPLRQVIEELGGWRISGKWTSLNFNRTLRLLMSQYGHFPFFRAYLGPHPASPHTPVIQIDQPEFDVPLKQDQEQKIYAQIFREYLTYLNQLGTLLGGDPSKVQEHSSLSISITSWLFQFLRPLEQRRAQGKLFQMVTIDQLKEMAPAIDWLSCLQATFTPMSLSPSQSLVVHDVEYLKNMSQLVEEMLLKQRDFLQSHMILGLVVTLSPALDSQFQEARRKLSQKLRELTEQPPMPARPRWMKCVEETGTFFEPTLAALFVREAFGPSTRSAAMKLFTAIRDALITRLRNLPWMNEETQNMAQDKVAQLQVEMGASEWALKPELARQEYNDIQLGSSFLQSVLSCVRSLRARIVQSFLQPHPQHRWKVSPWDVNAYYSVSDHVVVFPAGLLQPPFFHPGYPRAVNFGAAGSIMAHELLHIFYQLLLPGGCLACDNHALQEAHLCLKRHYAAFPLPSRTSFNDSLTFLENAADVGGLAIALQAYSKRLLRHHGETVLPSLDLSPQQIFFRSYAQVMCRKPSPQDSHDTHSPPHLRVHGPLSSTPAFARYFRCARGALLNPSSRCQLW
Put plainly: flow cytometry, indirect immunofluorescence on Kp^a/Kp^a RBCs. (In general: Flow cytometry measures light scatter and fluorescence of single cells or particles in a stream.)

Assay [2] has as its target T2, human Kell glycoprotein, Js^a (KEL6) form (human) (UniProt P23276).
T2 sequence (looked up): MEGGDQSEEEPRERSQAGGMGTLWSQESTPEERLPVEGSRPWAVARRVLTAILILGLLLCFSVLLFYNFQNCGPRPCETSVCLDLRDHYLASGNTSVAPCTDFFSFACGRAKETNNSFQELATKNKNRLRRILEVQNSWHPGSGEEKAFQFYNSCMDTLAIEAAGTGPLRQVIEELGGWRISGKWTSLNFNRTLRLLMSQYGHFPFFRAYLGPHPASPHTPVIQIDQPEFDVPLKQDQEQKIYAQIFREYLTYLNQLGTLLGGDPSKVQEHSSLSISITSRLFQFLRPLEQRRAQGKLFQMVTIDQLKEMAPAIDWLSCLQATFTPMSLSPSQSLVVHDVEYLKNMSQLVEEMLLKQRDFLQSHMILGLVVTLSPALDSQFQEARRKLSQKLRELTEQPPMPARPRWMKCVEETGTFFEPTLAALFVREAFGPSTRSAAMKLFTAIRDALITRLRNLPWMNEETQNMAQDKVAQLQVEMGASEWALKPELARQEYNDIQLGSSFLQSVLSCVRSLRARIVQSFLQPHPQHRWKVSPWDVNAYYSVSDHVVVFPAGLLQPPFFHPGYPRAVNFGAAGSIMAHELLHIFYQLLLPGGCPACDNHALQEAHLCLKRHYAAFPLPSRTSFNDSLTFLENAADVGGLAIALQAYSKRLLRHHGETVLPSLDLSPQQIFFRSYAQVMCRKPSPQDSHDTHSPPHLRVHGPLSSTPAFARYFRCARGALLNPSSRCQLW
Put plainly: flow cytometry, indirect immunofluorescence on Js^a/Js^a RBCs.

Results are given in words; binding and its absence hold for the method and conditions named. Some results given as binding are weak or reduced against the parent protein; the word gives no strength.

B1: monoclonal antibody PUMA 3 (antibody, V domains shown)
VH: QVQLKESGPGLLAPSQSLSITCTVSGFSLTSYGVYWVRQPPGKGLEWLGIIWGDGSTNYQSVLRSRLSITKDDSKSQVFLKLNSLQTDDTATYYCAKRGDYDVAYWGQGTLVTVSA
VL: DIVLTQSPASLAVSLGQRAIISCKASQTVSEVGTSLMHWYQQRPGQQPKLLIYRTSNLEAGVPTRFSGSGSRTDFTLNIHPVEEDDAATYYCQQSREFPWTFGGGTRLEIK
notes: Mouse monoclonal antibody from hybridoma
Turning to B1, the binding entry in assay [1] and in assay [2] was “binds” in each case.
